23 sequences from paper PMC7862700 can be followed below.

The chains behind the UniProt entries cited, without tags or fusion partners. Where a name states a change or a piece, a line headed by the entry shows the natural chain unless it says otherwise.
UniProt P32519: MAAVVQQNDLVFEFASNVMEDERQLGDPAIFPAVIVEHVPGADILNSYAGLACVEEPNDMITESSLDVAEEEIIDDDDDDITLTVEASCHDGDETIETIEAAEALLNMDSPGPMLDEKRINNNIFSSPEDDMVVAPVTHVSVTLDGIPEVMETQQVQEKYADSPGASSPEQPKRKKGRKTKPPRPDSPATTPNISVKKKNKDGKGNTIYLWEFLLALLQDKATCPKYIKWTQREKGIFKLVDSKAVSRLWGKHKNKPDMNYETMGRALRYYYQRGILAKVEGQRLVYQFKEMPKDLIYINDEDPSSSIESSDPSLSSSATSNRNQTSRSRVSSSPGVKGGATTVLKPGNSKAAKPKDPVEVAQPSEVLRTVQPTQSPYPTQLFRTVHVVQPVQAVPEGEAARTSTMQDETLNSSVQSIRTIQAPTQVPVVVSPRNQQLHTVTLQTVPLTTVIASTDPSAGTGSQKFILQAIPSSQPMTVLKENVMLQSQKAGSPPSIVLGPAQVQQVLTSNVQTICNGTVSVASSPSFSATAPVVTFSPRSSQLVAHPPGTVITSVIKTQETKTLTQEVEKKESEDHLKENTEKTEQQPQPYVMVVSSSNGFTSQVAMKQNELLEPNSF
UniProt P50549: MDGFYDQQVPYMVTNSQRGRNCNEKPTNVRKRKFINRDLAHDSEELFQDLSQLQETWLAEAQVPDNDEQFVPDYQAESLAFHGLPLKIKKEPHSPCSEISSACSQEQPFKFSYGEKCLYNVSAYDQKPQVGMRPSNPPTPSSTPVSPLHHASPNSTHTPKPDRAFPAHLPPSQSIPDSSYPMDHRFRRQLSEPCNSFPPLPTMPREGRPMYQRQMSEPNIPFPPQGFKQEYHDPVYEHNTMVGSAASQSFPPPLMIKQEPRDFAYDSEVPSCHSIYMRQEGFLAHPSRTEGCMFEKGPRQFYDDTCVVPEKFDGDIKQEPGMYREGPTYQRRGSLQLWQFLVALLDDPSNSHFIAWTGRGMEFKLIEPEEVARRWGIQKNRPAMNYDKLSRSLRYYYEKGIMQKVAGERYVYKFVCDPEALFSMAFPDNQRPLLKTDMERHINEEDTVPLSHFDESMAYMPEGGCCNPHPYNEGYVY

Assay in all cases: DAPPL (digital affinity profiling via proximity ligation, sequencing)
Holding throughout (conditions): 10 mM Tris-HCl pH 7.5, 50 mM NaCl, 1 mM DTT, 4% glycerol, room temperature, 30 min; GST-TFs on glutathione beads, 16-mer random dsDNA library, 0.1% …; high values mean tight binding; double strand, one strand shown; scale: fold enrichment (6-mer frequency, TF over GST control)

One assay has as its target T1, ERG (UniProt P11308).
T1 sequence: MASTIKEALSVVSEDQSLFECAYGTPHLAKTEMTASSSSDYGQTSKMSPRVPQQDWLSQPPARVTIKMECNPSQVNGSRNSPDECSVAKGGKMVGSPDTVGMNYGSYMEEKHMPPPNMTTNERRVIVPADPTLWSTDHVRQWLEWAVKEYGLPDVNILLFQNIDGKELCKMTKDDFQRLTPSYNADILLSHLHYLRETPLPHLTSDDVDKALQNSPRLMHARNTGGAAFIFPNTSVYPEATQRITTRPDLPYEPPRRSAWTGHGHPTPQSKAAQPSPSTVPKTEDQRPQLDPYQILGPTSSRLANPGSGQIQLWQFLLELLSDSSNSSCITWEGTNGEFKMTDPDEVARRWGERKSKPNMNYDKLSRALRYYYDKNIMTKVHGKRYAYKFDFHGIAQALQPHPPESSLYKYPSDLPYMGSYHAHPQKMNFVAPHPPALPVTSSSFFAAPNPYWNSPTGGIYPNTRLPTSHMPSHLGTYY

For another assay, the target named is ELF1 (UniProt P32519).
A further assay deals with T2, ELK4 (UniProt P28324-2).
T2 sequence: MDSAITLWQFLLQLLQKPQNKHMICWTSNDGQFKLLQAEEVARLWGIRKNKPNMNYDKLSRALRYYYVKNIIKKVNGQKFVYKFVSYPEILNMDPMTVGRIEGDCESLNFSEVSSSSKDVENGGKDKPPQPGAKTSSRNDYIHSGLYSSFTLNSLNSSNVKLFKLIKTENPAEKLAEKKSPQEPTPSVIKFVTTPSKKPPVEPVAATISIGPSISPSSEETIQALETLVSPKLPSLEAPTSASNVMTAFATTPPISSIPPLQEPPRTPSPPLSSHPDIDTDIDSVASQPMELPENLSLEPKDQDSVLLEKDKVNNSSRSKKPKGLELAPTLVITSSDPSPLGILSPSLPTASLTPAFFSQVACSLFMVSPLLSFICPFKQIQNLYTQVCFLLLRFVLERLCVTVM

For another assay, the target named is T3, ETV4 (UniProt P43268).
T3 sequence: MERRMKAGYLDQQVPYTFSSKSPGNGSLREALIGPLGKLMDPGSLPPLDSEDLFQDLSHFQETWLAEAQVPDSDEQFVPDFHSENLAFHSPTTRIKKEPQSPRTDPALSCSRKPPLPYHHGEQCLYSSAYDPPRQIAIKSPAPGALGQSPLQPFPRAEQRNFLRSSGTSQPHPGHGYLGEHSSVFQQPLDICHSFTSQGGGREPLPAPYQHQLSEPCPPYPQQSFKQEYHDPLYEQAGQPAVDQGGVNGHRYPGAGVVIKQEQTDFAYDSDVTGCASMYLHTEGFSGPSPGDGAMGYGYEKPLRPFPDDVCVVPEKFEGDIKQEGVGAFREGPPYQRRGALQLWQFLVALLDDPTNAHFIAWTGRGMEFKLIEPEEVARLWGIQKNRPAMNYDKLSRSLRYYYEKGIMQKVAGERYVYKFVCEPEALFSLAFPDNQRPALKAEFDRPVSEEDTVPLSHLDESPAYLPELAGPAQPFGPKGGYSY

The next assay addresses ETV1 (UniProt P50549).
A further assay concerns the target T4, ERF (UniProt P50548).
T4 sequence: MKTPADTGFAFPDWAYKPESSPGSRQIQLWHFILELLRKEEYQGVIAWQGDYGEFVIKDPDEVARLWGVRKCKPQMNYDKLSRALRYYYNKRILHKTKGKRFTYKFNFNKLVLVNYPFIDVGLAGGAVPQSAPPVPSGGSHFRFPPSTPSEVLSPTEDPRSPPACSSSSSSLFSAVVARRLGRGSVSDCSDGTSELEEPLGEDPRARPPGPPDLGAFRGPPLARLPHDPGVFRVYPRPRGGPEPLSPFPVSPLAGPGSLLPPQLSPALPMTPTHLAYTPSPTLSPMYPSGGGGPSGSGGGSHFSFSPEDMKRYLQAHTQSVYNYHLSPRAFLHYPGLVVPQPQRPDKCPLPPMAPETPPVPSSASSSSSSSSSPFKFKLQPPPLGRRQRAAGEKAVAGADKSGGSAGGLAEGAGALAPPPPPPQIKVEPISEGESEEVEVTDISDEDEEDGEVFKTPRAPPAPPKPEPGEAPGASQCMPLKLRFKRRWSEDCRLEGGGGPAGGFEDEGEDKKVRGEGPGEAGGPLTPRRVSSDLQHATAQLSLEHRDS

This is a selection; strong and weak results do not stand in their true shares. For part of these data: At the low end of the ranking, values are background and their order means little. This is one part of the list. For part of these data: Construct or isoform of the protein are uncertain.

Turning to CGGTGA, the binding signal with ERG was determined as 0.442; with ELF1, 0.5; with ELK4, 0.438; in the assay with ETV4, 0.454; in the assay with ETV1 it was 0.494; with ERF, 0.444.

In the case of CGGGAG, the binding signal was determined as 0.227 in the assay with ERG; 0.187 with ELF1; 0.169 with ELK4; 0.195 in the assay with ETV4; 0.206 in the assay with ETV1; 0.202 in the assay with ERF.

As to GACACG, the binding signal with ERG worked out at 0.676; with ELF1 it was 0.712; with ELK4, 0.763; with ETV4, 0.684; with ETV1, 0.689; with ERF it was 0.72.

For the sequence CAACGT, the binding signal in the assay with ERG amounted to 0.871; with ELF1, 0.895; in the assay with ELK4, 0.898; with ETV4, 0.928; with ETV1, 0.946; with ERF, 0.842.

GTGACA: the binding signal with ERG worked out at 0.788; in the assay with ELF1, 0.835; in the assay with ELK4 it was 0.803; with ETV4, 0.809; with ETV1, 0.765; in the assay with ERF it was 0.766.

GAGCCC: the binding signal was determined as 0.712 in the assay with ERG; 0.789 with ELF1; 0.75 with ELK4; 0.758 in the assay with ETV4; 0.714 in the assay with ETV1; 0.781 with ERF.

In the case of GGTGAC, the binding signal in the assay with ERG was 0.779; with ELF1, 0.831; with ELK4, 0.736; with ETV4, 0.858; in the assay with ETV1, 0.805; in the assay with ERF it was 0.688.

For GACGTG, the binding signal with ERG was found to be 0.313; in the assay with ELF1, 0.334; with ELK4, 0.345; in the assay with ETV4, 0.349; with ETV1, 0.348; with ERF it was 0.358.

As for GAGGGC, the binding signal with ERG came to 0.592; with ELF1, 0.642; with ELK4, 0.58; with ETV4, 0.647; with ETV1 it was 0.653; with ERF, 0.621.

As to GGCGCT, the binding signal in the assay with ERG was 0.709; in the assay with ELF1, 0.762; in the assay with ELK4, 0.792; with ETV4, 0.779; in the assay with ETV1 it was 0.783; with ERF it was 0.782.

On to GAGTCG, for which the binding signal with ERG is 0.235; in the assay with ELF1 it was 0.234; in the assay with ELK4, 0.234; with ETV4 it was 0.209; in the assay with ETV1, 0.233; with ERF, 0.248.

On to GAGCAT, for which the binding signal with ERG was determined as 0.764; with ELF1, 0.751; with ELK4, 0.75; in the assay with ETV4 it was 0.813; with ETV1 it was 0.719; with ERF, 0.675.

On to CGGGTG, for which the binding signal was 0.635 with ERG; 0.672 with ELF1; 0.755 in the assay with ELK4; 0.622 in the assay with ETV4; 0.693 with ETV1; 0.659 in the assay with ERF.

As for GAAGGA, the binding signal stood at 0.786 in the assay with ERG; 0.727 in the assay with ELF1; 0.707 with ELK4; 0.699 in the assay with ETV4; 0.668 with ETV1; 0.692 in the assay with ERF.

Regarding CGGAGT, the binding signal is 0.341 with ERG; 0.299 with ELF1; 0.346 with ELK4; 0.307 with ETV4; 0.335 in the assay with ETV1; 0.326 in the assay with ERF.

As for AGAAAG, the binding signal with ERG came to 0.838; in the assay with ELF1, 0.857; with ELK4, 0.904; with ETV4 it was 0.823; with ETV1, 0.825; with ERF it was 0.88.

Turning to AGAGAC, the binding signal with ERG came out at 0.487; with ELF1, 0.546; in the assay with ELK4, 0.519; with ETV4, 0.493; with ETV1 it was 0.497; with ERF, 0.523.

Take GCGTAC: the binding signal is 0.907 with ERG; 0.915 in the assay with ELF1; 0.945 with ELK4; 0.932 with ETV4; 0.927 in the assay with ETV1; 0.905 in the assay with ERF.

For CGGTAA, the binding signal came out at 0.984 in the assay with ERG; 0.979 in the assay with ELF1; 0.904 with ELK4; 0.932 with ETV4; 0.948 in the assay with ETV1; 0.882 with ERF.

As to ATCAGT, the binding signal with ERG was 0.821; in the assay with ELF1 it was 0.823; with ELK4, 0.935; in the assay with ETV4, 0.806; with ETV1 it was 0.784; with ERF it was 0.926.

Turning to GTAAGT, the binding signal came to 0.739 with ERG; 0.719 with ELF1; 0.745 with ELK4; 0.738 with ETV4; 0.821 with ETV1; 0.778 with ERF.

GGTGTC: the binding signal with ERG worked out at 0.789; with ELF1 it was 0.81; in the assay with ELK4, 0.672; in the assay with ETV4 it was 0.762; in the assay with ETV1 it was 0.881; with ERF, 0.743.

Take AATCGG: the binding signal with ERG stood at 0.546; in the assay with ELF1, 0.534; in the assay with ELK4, 0.572; with ETV4, 0.594; with ETV1 it was 0.536; with ERF it was 0.561.
